No constants are given. Whether binding was seen depends on the method and setting. In cells and extracts the contact can be indirect. Some results given as binding are weak or reduced against the parent protein; the word gives no strength. Where a sequence is shown, tags or fusion partners need not be part of it.

Chains of the proteins cited; added tags and fusions are not shown.
UniProt P99999: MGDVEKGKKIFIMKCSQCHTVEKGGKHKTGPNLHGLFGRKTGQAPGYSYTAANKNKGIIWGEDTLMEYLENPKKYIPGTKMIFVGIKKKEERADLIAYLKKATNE

Assay [1] concerns the target T1, FLAG-tagged human HIGD1C (HIGD1C-Myc-FLAG) (human) (UniProt A8MV81).
T1 sequence: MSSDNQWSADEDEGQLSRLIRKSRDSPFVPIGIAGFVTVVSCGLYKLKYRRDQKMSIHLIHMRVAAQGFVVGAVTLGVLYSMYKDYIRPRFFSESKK
In words: co-IP; FLAG-conjugated beads; 1 mg of mitochondria extracted in 1.5 M aminocaproic acid, 50 mM Bis-Tris pH 7, 1% digitonin; 2-3 hr at 4°C; SDS-PAGE and immunoblot of ETC subunits and cytochrome c; wild-type, HIGD1A-KO and HIGD2A-KO HEK293T cells. On the technique in general: Immunoblotting shows a protein as a band on a membrane.

The target in assay [2] is T2, FLAG-tagged mouse HIGD1C (Higd1c-Myc-FLAG) (mouse) (UniProt Q76I25).
T2 sequence: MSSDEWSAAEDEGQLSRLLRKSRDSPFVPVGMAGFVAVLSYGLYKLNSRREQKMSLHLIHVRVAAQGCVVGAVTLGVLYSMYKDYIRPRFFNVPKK
Described as above.

As to “cytochrome c (from UniProt P99999 1-105)”, the binding result in assay [1] and in assay [2] was “binds” throughout.

These data come from paper PMC9635879.
